According to US20070179094A1:
No constants are given. Whether binding was seen depends on the method and setting. Binding seen in cells or lysates may run through a third protein. Some results given as binding are weak or reduced against the parent protein; the word gives no strength.

By UniProt entry, the sequences of proteins in these tests, tags left out. Residues count along the entry.
UniProt O43914, residues 22-113: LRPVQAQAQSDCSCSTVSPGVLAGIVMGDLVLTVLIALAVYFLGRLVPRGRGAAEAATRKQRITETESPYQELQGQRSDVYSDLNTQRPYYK

How the values were obtained:
human DAP12 (human) [1] = biological target: human DAP12 (human) (UniProt O43914); experiment: co-immunoprecipitation from hMDL-1/DAP12 transfected 293 cells (FIG. 5B legend)
human DAP12 (human) [2] = biological target: human DAP12 (human) (UniProt O43914); experiment: co-immunoprecipitation: lysates of hMDL-1/hDAP12 expressing cells precipitated with rabbit α-hMDL-1 antibodies, immunoblot with anti-hDAP12 antibodies

binding (human DAP12 (human) [1]): binds
binding (human DAP12 (human) [2]): binds
B1: human MDL-1 (myeloid DAP12-associating lectin) (receptor)
chain: MNWHMIISGLIVVVLKVVGMTLFLLYFPQIFNKSNDGFTTTRSYGTVSQIFGSSSPSPNGFITTRSYGTVCPKDWEFYQARCFFLSTSESSWNESRDFCKGKGSTLAIVNTPEKLKFLQDITDAEKYFIGLIYHREEKRWRWINNSVFNGNVTNQNQNFNCATIGLTKTFDAASCDISYRRICEKNAK
